# PubChem BioAssay AID1159575 (Broad Institute, 2015)
# The other results are listed elsewhere or left out. Measured potencies and affinities stand elsewhere. The source made no clear call on entries shown without one.
# Test: Antimalarial erythrocyte culture assay, 72 h, loss-of-signal potency testing of dry-powder set (AID 1159575)
# Details: P. falciparum Dd2 in erythrocytes, SYBR Green; at 10 µM (top of the series)
structure (smiles),measurement,value
COc1ccc(-c2ccccc2[C@H]2[C@@H](CO)N(C(=O)C3CCCC3)[C@H]2C#N)cc1,"activity change, negative = inhibition",-5.67%
